Among the data in patent US20070190051A1 are binding values, retold here.

Protein sequences, listed by entry. Tags and fused reporters are not part of them. Lines headed by an entry give the natural chain unless they say otherwise; changes in a name come on top. Chains listed by the source or under a name are the forms on record and can include a tag or linker.
rhesus CD40 on B cells (F6SNI1, form named): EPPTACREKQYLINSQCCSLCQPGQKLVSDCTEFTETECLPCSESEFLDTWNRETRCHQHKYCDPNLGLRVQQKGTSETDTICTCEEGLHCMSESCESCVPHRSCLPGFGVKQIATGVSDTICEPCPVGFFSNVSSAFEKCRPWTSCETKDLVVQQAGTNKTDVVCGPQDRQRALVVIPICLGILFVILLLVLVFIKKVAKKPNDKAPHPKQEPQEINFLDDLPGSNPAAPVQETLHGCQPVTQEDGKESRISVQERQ
cynomolgus CD40 on B cells (G7PG38, form named): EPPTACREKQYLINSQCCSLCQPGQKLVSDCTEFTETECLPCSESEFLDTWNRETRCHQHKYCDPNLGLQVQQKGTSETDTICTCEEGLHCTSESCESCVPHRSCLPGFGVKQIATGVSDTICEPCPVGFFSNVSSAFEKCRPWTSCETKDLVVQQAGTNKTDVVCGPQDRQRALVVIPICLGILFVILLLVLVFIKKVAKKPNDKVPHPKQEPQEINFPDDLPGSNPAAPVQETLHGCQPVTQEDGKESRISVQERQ

Results are given in words; binding and its absence hold for the method and conditions named. Some results given as binding are weak or reduced against the parent protein; the word gives no strength.

Assay [1] addresses rhesus CD40 on B cells (rhesus) (UniProt F6SNI1). The assay is described as follows: FACS, whole blood B cells. (Flow cytometry measures light scatter and fluorescence of single cells or particles in a stream.)
Assay [2] concerns the target cynomolgus CD40 on B cells (cynomolgus) (UniProt G7PG38). The assay is described as follows: FACS, whole blood B cells.

B1: monoclonal antibody 3.1.1 (antibody, human IgG2, kappa, V domains shown)
VH: QVQLVESGGGVVQPGRSLRLSCAASGFTFSSYGMHWVRQAPGKGLEWVAVISKDGGNKYHADSVKGRFTISRDNSKNALYLQMNSLRVEDTAVYYCVRRGHQLVLGYYYYNGLDVWGQGTTVTVSS
VL: DIVLTQSPLSLPVTPGEPASISCRSSQSLLYSNGYNFLDWYLQKPGQSPQLLIYLGSNRASGVPDRFSGSGSGTDFTLKISRLEAEDVGVYYCMQALQTPRTFGQGTKVEIKR
As for B1, the binding result in assay [1] and in assay [2] was “binds” throughout.

B2: monoclonal antibody 10.8.3 (antibody, human IgG2, kappa, V domains shown)
VH: QVQLQESGPGLVKPSETLSLTCTVSGGSISSYYWIWIRQPAGKGLEWIGRVYTSGSTNYNPSLKSRVTMSVDTSKNQFSLKLSSVTAADTAVYYCARDGLYRGYGMDVWGQGTTVTVSS
VL: DIQMTQSPSSVSASVGDRVTITCRASQPISSWLAWYQQKPGKAPKLLIYSASGLQSGVPSRFSGSGSGTDFTLTISSLQPEDFATYYCQQTDSFPLTFGGGTKVEIKR
As to B2, the binding result in assay [1] and in assay [2] was “binds” throughout.
